The text below walks through data of patent US20020169296A1, “Linked, sequence-specific DNA-binding molecules” (priority 2000, published 2002).

Where no unit stands, none is given here, and values compare only within one read-out.

For the data set, the system named is Drosophila Kc nuclei. Briefly: Staining of isolated Kc nuclei, epifluorescence microscopy. As to conditions: 256 gray scale levels.

Turning to (Py)3-β-(Py)3-β-Dp-F* [Compound P9F], the “average pixel intensity of the nucleoplasm of the green channel” value is recorded as “about 130”.
For “F*-γ-(Py)5-β-Dp-Glu-(Ao)3-(Py)5-β-Dp [Lex9F]”, the “average pixel intensity of the nucleoplasm of the green channel” value is roughly 30.
